In the supplement of paper PMC10849652:
Some of the results follow.

Chains of the proteins cited; added tags and fusions are not shown. Lines headed by an entry give the natural chain unless they say otherwise; changes in a name come on top.
UniProt H0YH80: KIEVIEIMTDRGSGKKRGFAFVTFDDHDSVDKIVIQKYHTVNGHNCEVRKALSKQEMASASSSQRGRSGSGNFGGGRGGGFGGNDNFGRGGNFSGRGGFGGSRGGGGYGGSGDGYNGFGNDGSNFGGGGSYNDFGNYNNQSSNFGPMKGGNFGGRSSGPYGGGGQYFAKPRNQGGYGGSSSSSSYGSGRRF
UniProt Q8TCT9: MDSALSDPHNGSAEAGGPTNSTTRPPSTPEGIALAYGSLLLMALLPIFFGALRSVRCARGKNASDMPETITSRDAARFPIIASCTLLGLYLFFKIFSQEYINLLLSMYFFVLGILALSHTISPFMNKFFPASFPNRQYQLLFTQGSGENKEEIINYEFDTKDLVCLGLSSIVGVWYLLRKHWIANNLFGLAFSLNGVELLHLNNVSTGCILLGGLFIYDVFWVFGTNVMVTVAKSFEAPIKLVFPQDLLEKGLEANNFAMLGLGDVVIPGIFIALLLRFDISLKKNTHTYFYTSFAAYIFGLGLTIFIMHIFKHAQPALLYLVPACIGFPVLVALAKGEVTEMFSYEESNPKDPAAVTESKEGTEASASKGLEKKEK
UniProt Q9BXL5: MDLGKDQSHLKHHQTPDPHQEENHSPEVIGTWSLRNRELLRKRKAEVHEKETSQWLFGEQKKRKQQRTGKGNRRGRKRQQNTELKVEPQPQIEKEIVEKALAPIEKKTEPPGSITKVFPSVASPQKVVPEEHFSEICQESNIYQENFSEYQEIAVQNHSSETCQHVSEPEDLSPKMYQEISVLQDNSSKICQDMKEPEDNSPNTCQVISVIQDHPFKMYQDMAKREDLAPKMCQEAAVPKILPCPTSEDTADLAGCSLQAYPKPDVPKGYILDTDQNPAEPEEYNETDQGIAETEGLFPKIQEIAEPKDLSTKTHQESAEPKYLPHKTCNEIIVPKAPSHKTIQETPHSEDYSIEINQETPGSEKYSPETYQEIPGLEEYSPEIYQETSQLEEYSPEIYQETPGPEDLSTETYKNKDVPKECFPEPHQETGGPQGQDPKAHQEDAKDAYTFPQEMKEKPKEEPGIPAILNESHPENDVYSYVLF
UniProt P50747: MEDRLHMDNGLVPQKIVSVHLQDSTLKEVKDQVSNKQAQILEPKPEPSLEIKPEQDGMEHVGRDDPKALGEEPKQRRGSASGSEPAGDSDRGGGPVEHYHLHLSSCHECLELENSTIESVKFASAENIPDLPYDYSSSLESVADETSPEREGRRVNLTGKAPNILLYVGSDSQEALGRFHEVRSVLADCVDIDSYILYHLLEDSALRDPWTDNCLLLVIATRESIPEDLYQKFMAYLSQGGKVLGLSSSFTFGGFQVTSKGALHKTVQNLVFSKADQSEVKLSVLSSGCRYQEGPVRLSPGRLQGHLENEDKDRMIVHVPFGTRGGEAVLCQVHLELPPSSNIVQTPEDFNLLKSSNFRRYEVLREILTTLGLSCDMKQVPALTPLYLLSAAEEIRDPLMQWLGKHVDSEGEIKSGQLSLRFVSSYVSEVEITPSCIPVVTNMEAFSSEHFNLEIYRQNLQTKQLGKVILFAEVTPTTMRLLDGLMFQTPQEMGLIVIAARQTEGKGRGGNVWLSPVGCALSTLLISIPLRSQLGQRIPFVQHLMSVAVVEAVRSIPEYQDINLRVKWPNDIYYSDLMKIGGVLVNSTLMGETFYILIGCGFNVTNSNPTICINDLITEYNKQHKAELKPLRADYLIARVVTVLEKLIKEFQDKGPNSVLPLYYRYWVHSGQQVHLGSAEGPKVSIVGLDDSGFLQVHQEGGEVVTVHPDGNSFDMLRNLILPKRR
UniProt Q92902: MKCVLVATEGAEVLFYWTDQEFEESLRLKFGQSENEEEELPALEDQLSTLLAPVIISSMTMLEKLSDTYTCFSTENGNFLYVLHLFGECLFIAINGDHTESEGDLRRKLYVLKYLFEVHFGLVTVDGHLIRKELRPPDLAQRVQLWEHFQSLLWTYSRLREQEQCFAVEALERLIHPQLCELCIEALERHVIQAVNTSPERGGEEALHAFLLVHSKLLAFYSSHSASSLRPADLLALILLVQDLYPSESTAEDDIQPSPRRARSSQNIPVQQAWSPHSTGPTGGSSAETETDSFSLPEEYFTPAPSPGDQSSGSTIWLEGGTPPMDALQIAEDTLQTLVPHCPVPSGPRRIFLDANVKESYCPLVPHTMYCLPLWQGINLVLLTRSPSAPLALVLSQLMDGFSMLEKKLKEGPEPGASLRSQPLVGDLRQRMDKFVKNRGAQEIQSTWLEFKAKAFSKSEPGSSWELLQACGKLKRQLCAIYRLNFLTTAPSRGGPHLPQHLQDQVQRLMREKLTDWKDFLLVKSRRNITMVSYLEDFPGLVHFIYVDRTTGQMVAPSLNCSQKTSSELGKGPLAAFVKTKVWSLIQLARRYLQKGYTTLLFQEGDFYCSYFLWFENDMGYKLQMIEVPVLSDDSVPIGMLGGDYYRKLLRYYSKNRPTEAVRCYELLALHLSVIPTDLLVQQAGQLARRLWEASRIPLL
UniProt Q9Y5Z4: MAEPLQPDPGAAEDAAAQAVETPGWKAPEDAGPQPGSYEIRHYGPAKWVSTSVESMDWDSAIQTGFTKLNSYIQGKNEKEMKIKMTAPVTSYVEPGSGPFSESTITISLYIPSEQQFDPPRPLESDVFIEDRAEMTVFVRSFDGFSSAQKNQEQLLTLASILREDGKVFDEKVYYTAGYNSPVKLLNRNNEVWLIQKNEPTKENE
UniProt Q9NP66: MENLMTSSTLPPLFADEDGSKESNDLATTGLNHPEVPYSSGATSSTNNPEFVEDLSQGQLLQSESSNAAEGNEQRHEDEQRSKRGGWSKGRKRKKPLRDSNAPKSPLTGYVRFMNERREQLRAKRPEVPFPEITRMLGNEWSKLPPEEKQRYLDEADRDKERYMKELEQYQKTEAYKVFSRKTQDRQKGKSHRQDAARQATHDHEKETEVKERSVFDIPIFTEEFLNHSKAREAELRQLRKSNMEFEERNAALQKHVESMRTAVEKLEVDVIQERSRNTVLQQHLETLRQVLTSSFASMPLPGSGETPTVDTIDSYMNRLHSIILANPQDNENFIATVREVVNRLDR
UniProt P14625, whole entry, looked up: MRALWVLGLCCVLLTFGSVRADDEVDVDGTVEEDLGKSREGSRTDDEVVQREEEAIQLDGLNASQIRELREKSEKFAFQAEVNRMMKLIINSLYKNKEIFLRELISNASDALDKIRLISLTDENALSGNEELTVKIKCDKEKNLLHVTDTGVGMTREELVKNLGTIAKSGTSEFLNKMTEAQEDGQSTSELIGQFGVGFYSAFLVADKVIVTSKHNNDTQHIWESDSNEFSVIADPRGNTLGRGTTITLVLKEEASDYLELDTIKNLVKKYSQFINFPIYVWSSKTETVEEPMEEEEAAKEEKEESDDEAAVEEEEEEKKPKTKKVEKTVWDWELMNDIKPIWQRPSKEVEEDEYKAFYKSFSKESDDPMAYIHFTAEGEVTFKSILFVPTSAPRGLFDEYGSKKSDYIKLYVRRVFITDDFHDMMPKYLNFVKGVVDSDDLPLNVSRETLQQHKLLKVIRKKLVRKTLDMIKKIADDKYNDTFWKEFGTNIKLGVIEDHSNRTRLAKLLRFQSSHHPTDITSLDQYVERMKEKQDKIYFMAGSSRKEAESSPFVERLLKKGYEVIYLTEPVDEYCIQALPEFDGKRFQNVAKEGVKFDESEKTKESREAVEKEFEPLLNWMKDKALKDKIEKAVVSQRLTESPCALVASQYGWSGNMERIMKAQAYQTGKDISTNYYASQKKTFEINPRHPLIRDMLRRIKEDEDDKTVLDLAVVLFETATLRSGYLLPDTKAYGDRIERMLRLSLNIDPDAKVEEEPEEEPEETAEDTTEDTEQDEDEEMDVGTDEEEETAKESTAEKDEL
UniProt Q14527: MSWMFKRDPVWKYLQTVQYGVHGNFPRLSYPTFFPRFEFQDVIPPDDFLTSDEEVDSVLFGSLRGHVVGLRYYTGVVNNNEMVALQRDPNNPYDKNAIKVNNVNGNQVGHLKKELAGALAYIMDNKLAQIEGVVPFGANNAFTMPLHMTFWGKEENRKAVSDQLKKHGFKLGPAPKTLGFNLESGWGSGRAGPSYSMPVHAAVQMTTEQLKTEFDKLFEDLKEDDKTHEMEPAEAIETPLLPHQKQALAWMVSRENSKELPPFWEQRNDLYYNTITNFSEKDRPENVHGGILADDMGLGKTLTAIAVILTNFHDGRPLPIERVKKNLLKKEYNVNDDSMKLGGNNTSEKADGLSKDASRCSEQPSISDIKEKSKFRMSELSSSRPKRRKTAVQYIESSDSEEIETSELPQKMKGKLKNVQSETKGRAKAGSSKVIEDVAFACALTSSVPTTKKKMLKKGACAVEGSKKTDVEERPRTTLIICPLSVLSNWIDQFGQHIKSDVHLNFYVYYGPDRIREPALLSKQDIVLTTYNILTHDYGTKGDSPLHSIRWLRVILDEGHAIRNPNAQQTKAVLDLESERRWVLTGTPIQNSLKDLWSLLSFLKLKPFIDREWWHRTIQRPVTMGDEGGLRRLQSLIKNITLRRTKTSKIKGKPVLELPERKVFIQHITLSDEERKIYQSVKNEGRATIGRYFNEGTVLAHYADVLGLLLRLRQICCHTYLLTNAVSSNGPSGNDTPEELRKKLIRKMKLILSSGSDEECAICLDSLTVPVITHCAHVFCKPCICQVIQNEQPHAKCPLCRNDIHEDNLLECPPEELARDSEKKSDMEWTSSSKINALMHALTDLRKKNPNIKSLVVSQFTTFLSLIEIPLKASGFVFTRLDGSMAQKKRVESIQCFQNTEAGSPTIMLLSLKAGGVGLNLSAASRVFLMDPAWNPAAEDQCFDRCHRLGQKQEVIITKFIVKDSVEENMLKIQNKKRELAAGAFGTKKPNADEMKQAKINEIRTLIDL
UniProt P31942: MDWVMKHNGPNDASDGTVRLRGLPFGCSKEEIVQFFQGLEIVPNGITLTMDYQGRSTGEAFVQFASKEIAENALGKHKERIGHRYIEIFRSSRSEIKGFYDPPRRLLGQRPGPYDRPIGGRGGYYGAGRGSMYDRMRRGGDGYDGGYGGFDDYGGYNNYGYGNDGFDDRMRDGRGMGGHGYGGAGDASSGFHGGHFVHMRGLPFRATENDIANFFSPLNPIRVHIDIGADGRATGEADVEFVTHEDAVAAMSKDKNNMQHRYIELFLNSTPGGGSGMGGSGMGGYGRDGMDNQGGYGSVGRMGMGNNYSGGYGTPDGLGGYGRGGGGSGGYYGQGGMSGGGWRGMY
UniProt O43390: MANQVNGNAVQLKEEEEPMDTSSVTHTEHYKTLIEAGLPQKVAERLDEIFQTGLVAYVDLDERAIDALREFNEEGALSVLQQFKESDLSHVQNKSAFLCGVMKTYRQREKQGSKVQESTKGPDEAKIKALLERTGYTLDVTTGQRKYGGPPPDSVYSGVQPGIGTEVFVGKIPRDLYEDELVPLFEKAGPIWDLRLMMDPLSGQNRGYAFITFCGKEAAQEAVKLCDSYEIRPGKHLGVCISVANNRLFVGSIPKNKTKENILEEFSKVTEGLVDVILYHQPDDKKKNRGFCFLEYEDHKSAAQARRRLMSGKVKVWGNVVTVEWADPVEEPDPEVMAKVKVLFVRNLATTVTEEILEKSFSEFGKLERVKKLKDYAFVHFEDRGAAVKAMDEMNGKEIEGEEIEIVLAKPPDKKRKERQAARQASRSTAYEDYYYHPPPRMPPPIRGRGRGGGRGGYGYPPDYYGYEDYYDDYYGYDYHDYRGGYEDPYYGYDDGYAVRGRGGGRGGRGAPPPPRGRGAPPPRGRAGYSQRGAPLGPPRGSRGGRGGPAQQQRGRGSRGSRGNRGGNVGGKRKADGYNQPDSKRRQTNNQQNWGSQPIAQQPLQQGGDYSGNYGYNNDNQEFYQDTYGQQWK
UniProt Q3SXM5: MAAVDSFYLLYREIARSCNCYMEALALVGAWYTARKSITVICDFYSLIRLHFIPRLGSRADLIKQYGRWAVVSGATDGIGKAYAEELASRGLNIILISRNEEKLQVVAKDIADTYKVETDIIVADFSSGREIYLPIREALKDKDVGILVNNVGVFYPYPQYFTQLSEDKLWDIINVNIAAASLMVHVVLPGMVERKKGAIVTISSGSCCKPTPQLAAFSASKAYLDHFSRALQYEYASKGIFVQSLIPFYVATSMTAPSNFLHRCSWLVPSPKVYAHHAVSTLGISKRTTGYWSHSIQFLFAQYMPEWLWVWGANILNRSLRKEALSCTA
UniProt P31937: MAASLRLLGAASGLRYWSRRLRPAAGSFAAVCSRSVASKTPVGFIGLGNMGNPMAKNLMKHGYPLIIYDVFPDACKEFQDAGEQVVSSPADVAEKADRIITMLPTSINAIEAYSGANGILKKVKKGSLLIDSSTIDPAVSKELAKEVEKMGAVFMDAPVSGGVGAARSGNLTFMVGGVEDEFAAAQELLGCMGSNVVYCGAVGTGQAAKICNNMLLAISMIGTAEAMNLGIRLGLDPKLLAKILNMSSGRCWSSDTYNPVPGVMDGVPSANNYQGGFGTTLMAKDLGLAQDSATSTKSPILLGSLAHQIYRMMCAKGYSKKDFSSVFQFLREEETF

Experiments:
Test in all cases: log2 fold change, soluble protein after heating vs DMSO (PISA); higher = thermal stabilisation; K562 lysate, 10 uM; active = over 0.2 and 3.5 SD of the protein, either way, in both replicates (recomputed)
erlotinib = compound: C#Cc1cccc(Nc2ncnc3cc(OCCOC)c(OCCOC)cc23)c1 [erlotinib]
Summary of the method: (§1)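 Following dounce homogenisation of K562 pellets in PBS pH 7.4 with 1 mM MgCl2, crude extract at 1 mg/mL protein was incubated for 30 min with 10 μM compound. Aliquots were then heated for 3 min over 48°C-58°C and pooled, NP-40 was added to 0.5% at 4°C, and soluble protein was recovered as the supernatant at 21,000xg for 90 min. Channel-sum-equalised TMTpro 16plex LC-MS/MS quantified this protein. Each value, from duplicates, is a log-two fold change in thermal stability relative to solvent controls.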

[1] = compound: C/C(=N\NC(=O)C1=CC(=CC=C1)S(=O)(=O)N2CCOCC2)/C3=C(C=CC(=C3)Cl)O
Summary of the method: as §1

[2] = compound: C1=CC(=CC=C1C2=NC3=C(N2)C=C(C=C3)C(=O)N)OC4=CC=C(C=C4)Cl
Summary of the method: as §1

[3] = compound: C1=CC2=C(C=CC(=C2)/C=C\3/C(=O)NC(=NCC4=CC=CS4)S3)N=C1
Summary of the method: as §1

[4] = compound: C1=CC2=NC=CN=C2C=C1/C=C/3\C(=O)NC(=O)S3
Summary of the method: as §1

[5] = compound: C1=CC=C(C=C1)C2=NC(=C(N2)C3=CC=NC=C3)C4=CC(=C(C=C4)Cl)O
Summary of the method: as §1

[6] = compound: C1=CC=C2C(=C1)C3=NNC4=CC=CC(=C43)C2=O
Summary of the method: as §1

[7] = compound: C1CCN(C1)C(=O)NC2=CC=CC(=C2)NC3=NC=C(C(=N3)NCCC4=CN=CN4)Br
Summary of the method: as §1

[8] = compound: C1CN(CCC1(CC2=CC=C(C=C2)Cl)N)C3=NC=NC4=C3C=CN4
Summary of the method: as §1

IRAK-1-4 Inhibitor I = compound: C1COCCN1CCN2C3=CC=CC=C3N=C2NC(=O)C4=CC(=CC=C4)[N+](=O)[O-] [IRAK-1-4 Inhibitor I]
Summary of the method: as §1

Measured: log2 fold change

HNRNPA1 (UniProt H0YH80)
inactive: erlotinib -0.003 | [1] -0.036 | [2] 0.063 | [3] -0.06 | [4] -0.064 | [5] 0.075 | [6] 0.084 | [7] 0.023 | [8] -0.007 | IRAK-1-4 Inhibitor I -0.016

HM13 isoform 2 (UniProt Q8TCT9)
inactive: erlotinib -0.011 | [1] -0.013 | [2] 0.008 | [3] -0.005 | [4] 0.017 | [5] -0.004 | [6] -0.045 | [7] -0.009 | [8] 0 | IRAK-1-4 Inhibitor I 0.054

HNRNPH1 (UniProt P31943)
inactive: erlotinib 0.005 | [1] -0.055 | [2] 0.014 | [3] 0.035 | [4] 0.016 | [5] 0.044 | [6] -0.003 | [7] -0.003 | [8] -0.008 | IRAK-1-4 Inhibitor I 0.019

HEMGN (UniProt Q9BXL5)
inactive: erlotinib -0.008 | [1] 0.025 | [2] 0.01 | [3] 0.001 | [4] -0.023 | [5] 0.01 | [6] 0.056 | [7] 0.01 | [8] -0.002 | IRAK-1-4 Inhibitor I -0.008

HLCS (UniProt P50747)
inactive: erlotinib 0.019 | [1] -0.071 | [2] 0.013 | [3] 0.03 | [4] -0.017 | [5] -0.004 | [6] -0.019 | [7] 0.008 | [8] -0.034 | IRAK-1-4 Inhibitor I -0.008

HPS1 (UniProt Q92902)
inactive: erlotinib 0.008 | [1] -0.027 | [2] 0.089 | [3] -0.083 | [4] 0.005 | [5] -0.054 | [6] -0.043 | [7] -0.088 | [8] 0.084 | IRAK-1-4 Inhibitor I 0.016

HNRNPK isoform 2 (UniProt P61978)
inactive: erlotinib -0.016 | [1] 0.03 | [2] -0.006 | [3] -0.036 | [4] -0.021 | [5] 0.018 | [6] -0.022 | [7] -0.003 | [8] -0.013 | IRAK-1-4 Inhibitor I 0.007

HEBP2 (UniProt Q9Y5Z4)
inactive: erlotinib -0.008 | [1] 0.071 | [2] 0.024 | [3] -0.008 | [4] -0.036 | [5] -0.009 | [6] -0.047 | [7] 0.012 | [8] -0.008 | IRAK-1-4 Inhibitor I -0.001

HMG20A (UniProt Q9NP66)
inactive: erlotinib -0.009 | [1] 0.039 | [2] 0.053 | [3] -0.036 | [4] -0.003 | [5] -0.073 | [6] 0.003 | [7] 0 | [8] 0.016 | IRAK-1-4 Inhibitor I 0.043

HSP90B1 (UniProt P14625)
inactive: erlotinib -0.016 | [1] 0.004 | [2] 0.02 | [3] 0.002 | [4] -0.008 | [5] 0.008 | [6] 0.023 | [7] 0.01 | [8] -0.011 | IRAK-1-4 Inhibitor I 0.004

HNRNPL (UniProt P14866)
inactive: erlotinib 0.054 | [1] 0.073 | [2] 0.022 | [3] -0.007 | [4] 0.013 | [5] 0.033 | [6] -0.041 | [7] -0.017 | [8] -0.003 | IRAK-1-4 Inhibitor I 0.014

Quoted from the listing (2 entries):
HNRNPA1 (UniProt H0YH80)
inactive: erlotinib -0.003 | [1] -0.036 | [2] 0.063 | [3] -0.06 | [4] -0.064 | [5] 0.075 | [6] 0.084 | [7] 0.023 | [8] -0.007 | IRAK-1-4 Inhibitor I -0.016

HM13 isoform 2 (UniProt Q8TCT9)
inactive: erlotinib -0.011 | [1] -0.013 | [2] 0.008 | [3] -0.005 | [4] 0.017 | [5] -0.004 | [6] -0.045 | [7] -0.009 | [8] 0 | IRAK-1-4 Inhibitor I 0.054

Next records:

HMGB2 (UniProt P26583)
inactive: erlotinib -0.007 | [1] 0.039 | [2] 0.007 | [3] 0.008 | [4] -0.017 | [5] 0.046 | [6] 0.013 | [7] 0.014 | [8] -0.008 | IRAK-1-4 Inhibitor I -0.026

HGH1 (UniProt Q9BTY7)
inactive: erlotinib 0.031 | [1] 0.051 | [2] -0.095 | [3] -0.002 | [4] 0.006 | [5] 0.017 | [6] -0.064 | [7] -0.047 | [8] 0.028 | IRAK-1-4 Inhibitor I -0.021

HLTF (UniProt Q14527)
inactive: erlotinib 0.052 | [1] -0.019 | [2] 0.081 | [3] -0.003 | [4] -0.032 | [5] -0.028 | [6] 0.008 | [7] -0.053 | [8] 0.015 | IRAK-1-4 Inhibitor I -0.019

HNRNPH3 (UniProt P31942)
inactive: erlotinib 0.089 | [1] 0.044 | [2] 0.067 | [3] -0.009 | [4] 0.003 | [5] 0.003 | [6] 0.014 | [7] 0.032 | [8] -0.003 | IRAK-1-4 Inhibitor I 0.014

HNRNPA2B1 (UniProt P22626)
inactive: erlotinib 0.002 | [1] 0.035 | [2] 0.017 | [3] 0.001 | [4] -0.022 | [5] -0.011 | [6] -0.015 | [7] -0.011 | [8] 0.003 | IRAK-1-4 Inhibitor I 0.005

HPCAL1 (UniProt P37235)
inactive: erlotinib -0.037 | [1] -0.001 | [2] -0.012 | [3] -0.029 | [4] 0.004 | [5] -0.018 | [6] 0.003 | [7] 0.03 | [8] -0.023 | IRAK-1-4 Inhibitor I 0

HMMR isoform 3 (UniProt O75330)
inactive: erlotinib -0.034 | [1] 0.007 | [2] -0.01 | [3] 0.009 | [4] -0.016 | [5] 0.006 | [6] 0.021 | [7] -0.015 | [8] -0.017 | IRAK-1-4 Inhibitor I -0.01

HECTD4 (UniProt J3KPF0)
inactive: erlotinib 0.076 | [1] -0.002 | [2] 0.035 | [3] -0.125 | [4] -0.02 | [5] 0.024 | [6] -0.055 | [7] -0.027 | [8] 0.01 | IRAK-1-4 Inhibitor I -0.009

HNRNPR (UniProt O43390)
inactive: erlotinib 0.072 | [1] -0.261 | [2] -0.064 | [3] 0.005 | [4] 0.029 | [5] 0.001 | [6] 0.032 | [7] 0.009 | [8] 0.15 | IRAK-1-4 Inhibitor I 0.027

HSDL1 (UniProt Q3SXM5)
inactive: erlotinib -0.017 | [1] 0.002 | [2] 0 | [3] 0.021 | [4] -0.004 | [5] -0.018 | [6] -0.016 | [7] 0.006 | [8] 0.018 | IRAK-1-4 Inhibitor I 0.036

HMGCS1 (UniProt Q01581)
inactive: erlotinib -0.003 | [1] -0.035 | [2] 0.006 | [3] -0.001 | [4] -0.005 | [5] 0.014 | [6] 0.004 | [7] 0.003 | [8] 0.012 | IRAK-1-4 Inhibitor I -0.009

HNRNPK isoform 3 (UniProt P61978)
inactive: erlotinib -0.004 | [1] 0.15 | [2] -0.044 | [3] -0.03 | [4] 0.039 | [5] 0.061 | [6] 0.007 | [7] 0.067 | [8] 0.03 | IRAK-1-4 Inhibitor I -0.019

HNRNPD isoform 3 (UniProt Q14103)
inactive: erlotinib -0.056 | [1] -0.133 | [2] -0.1 | [3] -0.181 | [4] -0.036 | [5] -0.11 | [6] 0.021 | [7] 0.108 | [8] -0.043 | IRAK-1-4 Inhibitor I -0.057

HIBADH (UniProt P31937)
inactive: erlotinib 0.045 | [1] -0.01 | [2] 0 | [3] -0.032 | [4] 0.015 | [5] -0.07 | [6] -0.008 | [7] 0.029 | [8] 0.025 | IRAK-1-4 Inhibitor I 0

HJURP (UniProt Q8NCD3)
inactive: erlotinib 0.007 | [1] -0.07 | [2] 0.022 | [3] 0.206 | [4] -0.089 | [5] 0.132 | [6] -0.163 | IRAK-1-4 Inhibitor I 0.001

HEXA (UniProt P06865)
inactive: erlotinib -0.01 | [1] -0.026 | [2] 0 | [3] -0.013 | [4] -0.02 | [5] -0.003 | [6] 0 | [7] -0.004 | [8] 0.033 | IRAK-1-4 Inhibitor I 0.015
